Experimental data reported in PMC11092868, “Mapping Novel Frataxin Mitochondrial Networks Through Protein- Protein Interactions” (Research Square, 2024).
These are yes or no findings as the source states them, for the method shown.

Molecular target: Peroxiredoxin 3, endogenous human (human (endogenous in A549, lymphoblasts and dermal fibroblasts)) (UniProt P30048)
Assay: condition: only with β-mercaptoethanol in Laemmli buffer; non-reducing SDS-PAGE and immunoblot after NEM alkylation; lysis in alkylation buffer with 100 mM N-ethylmaleimide and 10 ug/mL catalase; oxidized dimers against reduced monomers; with or without beta-mercaptoethanol in Laemmli buffer

B1: Peroxiredoxin 3, endogenous human (natural protein, UniProt P30048 62-256, looked up)
chain: APAVTQHAPYFKGTAVVNGEFKDLSLDDFKGKYLVLFFYPLDFTFVCPTEIVAFSDKANEFHDVNCEVVAVSVDSHFSHLAWINTPRKNGGLGHMNIALLSDLTKQISRDYGVLLEGSGLALRGLFIIDPNGVIKHLSVNDLPVGRSVEETLRLVKAFQYVETHGEVCPANWTPDSPTIKPSPAASKEYFQKVNQ
notes: Peroxiredoxin 3, mitochondrial, human; also called Prdx3; PRDX3; source: endogenous: A549 cells (BioID); human lymphoblast lysate fractions (co-IP); human dermal fibroblast lysate (redox blot)
Question: Which binding does the source give for B1 here?
Answer: no binding
